Assay [1] has as its target T1, Myc-tagged wild-type DND1 (human) (UniProt Q8IYX4).
T1 sequence: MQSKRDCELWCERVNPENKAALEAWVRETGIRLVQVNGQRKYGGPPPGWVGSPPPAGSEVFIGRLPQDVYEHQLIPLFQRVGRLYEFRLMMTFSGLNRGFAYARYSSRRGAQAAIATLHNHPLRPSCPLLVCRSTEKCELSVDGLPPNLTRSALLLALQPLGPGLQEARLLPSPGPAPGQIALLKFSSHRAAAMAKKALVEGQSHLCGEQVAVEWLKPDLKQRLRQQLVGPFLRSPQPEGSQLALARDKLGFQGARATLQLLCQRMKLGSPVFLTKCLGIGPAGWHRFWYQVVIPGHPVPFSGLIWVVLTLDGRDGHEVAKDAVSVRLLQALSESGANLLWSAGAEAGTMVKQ
Kind of assay: co-IP; HEK293T cells co-transfected; lysis buffer 50 mM Tris pH 7.5, 150 mM NaCl, 5 mM EDTA, 0.1% NP-40 with PMSF, protease inhibitors and MG132; anti-c-Myc beads, 4 °C, 2-3 h; six washes; blotted with Myc and mCherry or GFP antibodies.

Protein sequences, listed by entry. Tags and fused reporters are not part of them. Residues count along the entry.
UniProt A5YKK6, residues 1-551: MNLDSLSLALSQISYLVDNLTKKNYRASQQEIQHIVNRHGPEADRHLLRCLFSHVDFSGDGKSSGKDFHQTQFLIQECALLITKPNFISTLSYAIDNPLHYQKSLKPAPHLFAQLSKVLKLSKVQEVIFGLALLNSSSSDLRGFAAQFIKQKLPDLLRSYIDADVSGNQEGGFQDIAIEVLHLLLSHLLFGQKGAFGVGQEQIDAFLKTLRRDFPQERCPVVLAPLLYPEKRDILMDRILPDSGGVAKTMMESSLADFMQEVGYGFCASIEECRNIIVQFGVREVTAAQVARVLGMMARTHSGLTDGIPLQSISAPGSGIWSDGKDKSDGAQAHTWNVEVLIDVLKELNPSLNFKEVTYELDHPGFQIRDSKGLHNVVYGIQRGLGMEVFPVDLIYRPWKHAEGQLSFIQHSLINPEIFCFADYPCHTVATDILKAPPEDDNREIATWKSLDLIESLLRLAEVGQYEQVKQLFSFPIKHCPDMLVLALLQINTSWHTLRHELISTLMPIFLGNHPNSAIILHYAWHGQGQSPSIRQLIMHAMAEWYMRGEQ
UniProt P60321: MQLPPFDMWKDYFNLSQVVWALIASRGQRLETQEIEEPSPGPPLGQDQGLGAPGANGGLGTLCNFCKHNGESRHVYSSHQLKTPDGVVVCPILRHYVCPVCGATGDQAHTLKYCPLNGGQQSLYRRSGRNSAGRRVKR

Assay [2] concerns the target T2, Myc-tagged mutated DND1 (E71A) (human) (UniProt Q8IYX4).
T2 sequence: T1 sequence with E71A
Described as above.

Residue numbers refer to the chain shown, from its start. No constants are given. Whether binding was seen depends on the method and setting. Binding seen in cells or lysates may run through a third protein. Some binding calls cover weakened binding; strength is not graded here. Sequences can lack the tags named with a protein.

As to “GFP-tagged CNOT1(1-551) (from UniProt A5YKK6 1-551) (domain or fragment)”, the binding result in assay [1] and in assay [2] was “binds” in each case.

For the substance “mCherry-tagged NANOS2 (from UniProt P60321 1-138)”, the binding entry in assay [1] is given as “binds”.

These data come from publication PMC9561125.
